From the supplement of paper PMC3334620
In all, about 33,000 sequences were measured (“E-score (-0.5 to 0.5)”: median about -0.0014, highest 2% from about 0.25 on). Some of the results follow.

Biological target: T1, Cad1 (UniProt P24813)
T1 sequence: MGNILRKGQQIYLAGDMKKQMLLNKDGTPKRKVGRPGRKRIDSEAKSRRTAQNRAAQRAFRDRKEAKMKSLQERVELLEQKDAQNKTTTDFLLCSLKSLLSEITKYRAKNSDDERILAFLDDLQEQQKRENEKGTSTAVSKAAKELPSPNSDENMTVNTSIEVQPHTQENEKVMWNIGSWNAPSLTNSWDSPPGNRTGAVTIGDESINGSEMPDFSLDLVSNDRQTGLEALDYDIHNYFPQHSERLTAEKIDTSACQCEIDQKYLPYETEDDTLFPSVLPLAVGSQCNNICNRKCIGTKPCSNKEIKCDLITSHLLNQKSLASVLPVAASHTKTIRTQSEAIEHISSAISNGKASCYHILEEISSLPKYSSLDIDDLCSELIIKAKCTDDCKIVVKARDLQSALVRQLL
Assay: PBM E-score (8-mer binding enrichment) (E-score (-0.5 to 0.5)); higher = stronger / more preferred TF binding
Settings: protein concentration: 100 nM; construct: GST-full length
Experimental: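 Universal 'all 10-mer' protein binding microarrays (Agilent AMADID 015681) probed with GST-tagged S. cerevisiae TFs (full-length or DBD) made by in vitro transcription/translation (PURExpress), about 100-200 nM. Bound TF was detected with fluorescent anti-GST. Each ungapped 8-mer (which stands for itself and its reverse complement) is scored by the PBM enrichment score (E-score), a modified Wilcoxon-Mann-Whitney statistic from -0.5 to +0.5, computed with the Universal PBM Analysis Suite. Scale: above 0.35 generally sequence-specific binding.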

Row | Sequence | PBM E-score
1 | GACAGACA | 0.21
2 | AACATGTC | 0.00441
3 | ACCGCAAA | 0.14
4 | ATTCGGGA | -0.0803
5 | CCATCGTA | 0.128
6 | AATTCTTA | 0.128
7 | CCCGGGAA | -0.0141
8 | CTGGAGGC | -0.0647
9 | CTTTGCCA | -0.161
10 | AGTTTATC | 0.0956
11 | ATTGCGGC | -0.0914
12 | ATTATCTG | 0.154
13 | CGAGAATA | 0.128
14 | ACACACAC | -0.0366
15 | GGATTACA | 0.0354
16 | AGTGATAT | 0.0284
17 | CATCGGCA | 0.0127
18 | CATCTTGG | -0.192
19 | CGAAGTAC | 0.0229
20 | GAAGGGGC | -0.26
21 | TGAGAACA | 0.24
22 | AAACGCGA | 0.0547
23 | GTCGCGTA | 0.127
24 | ATCGCCAT | -0.0275
25 | ATCCGCTC | -0.0674

Row | Sequence | PBM E-score
26 | ATTAAAAG | 0.0637
27 | ATAAAGAC | -0.0456
28 | ACTTATAG | 0.0372
29 | AAGCGAGT | 0.22
30 | ATGGACAG | -0.148
31 | ATATCTCC | 0.0873
32 | GTGAAGAA | 0.0872
33 | GGAAATCA | 0.0778
34 | CCCCAAAG | -0.144
35 | GTCGAGAA | 0.137
36 | AGGTGCAA | -0.0504
37 | AAGGCCAG | -0.17
38 | AGCGTACT | -0.12
39 | CTACCAAG | -0.0872
40 | ATATGTTG | 0.094
41 | CAACGAAG | 0.0215
42 | AGACCAAT | 0.155
43 | AGGGCGGG | 0.0757
44 | TACTTGAA | 0.0482
45 | GCAGTACA | -0.0947
46 | CCGGGAGG | -0.259
47 | CAGAAGGC | 0.0218
48 | CGAAATGA | 0.00552
49 | CTGTTGGA | -0.0293
50 | AGACAGAA | -0.0471

Taken from above:
For PBM E-score, AGTGATAT reads 0.0284
For PBM E-score, CCGGGAGG reads -0.259
For PBM E-score, ACTTATAG reads 0.0372
For PBM E-score, GACAGACA reads 0.21

Following part.

Row | Sequence | PBM E-score
51 | ATTGAGTA | 0.142
52 | ATTTCATG | -0.116
53 | GATATGGC | -0.315
54 | GGAGACTA | -0.23
55 | AGGATGAC | 0.0466
56 | ATGGTCGA | 0.0565
57 | ACACGTGT | -0.0435
58 | ACAGATGG | -0.127
59 | CGGTATTA | 0.101
60 | GGAAGAGA | -0.0843
61 | CCGCCAGC | -0.151
62 | GAACGTCA | -0.0774
63 | ATCATCGG | 0.123
64 | ACCCCCAC | -0.44
65 | TAAGGGGA | -0.149
66 | ATAACAAT | 0.0624
67 | ATTGACGC | 0.0385
68 | ACTTCGAA | 0.084
69 | AGAGTCAT | -0.221
70 | AGCGTCAA | -0.0579
71 | GCGCGTTA | 0.147
72 | CGTGGTCA | -0.092
73 | AATATTAC | 0.347
74 | ACTCTGGC | -0.111
75 | ATAAAATG | 0.192

Row | Sequence | PBM E-score
76 | CAGTATCC | -0.0463
77 | GAACCGAC | 0.105
78 | CGGATAAC | 0.0736
79 | GGGCGCAC | -0.163
80 | CTCCCTAC | -0.26
81 | ATATCGCA | -0.0511
82 | AAGGACCA | -0.17
83 | AGCGGGAT | -0.0726
84 | CGCTTCCG | 0.129
85 | AACTAGGC | -0.133
86 | AGCAAGAA | 0.0592
87 | AGTTCCCG | -0.0922
88 | CAGCGATG | -0.0149
89 | GAGTTGAC | -0.0116
90 | GAGCCAAC | -0.164
91 | ACCGGACT | -0.13
92 | CAGTCCTA | -0.0337
93 | GAAACCCC | -0.162
94 | AGGGCTGC | -0.242
95 | CATCAGAA | 0.126
96 | GGACACGA | -0.0804
97 | GGGTTTGA | -0.00297
98 | GTGTGTCA | 0.217
99 | ATTTCGGA | 0.211
100 | CGATCAAC | -0.0208

Nos. 89 through 93 from above:
Row | Sequence | PBM E-score
89 | GAGTTGAC | -0.0116
90 | GAGCCAAC | -0.164
91 | ACCGGACT | -0.13
92 | CAGTCCTA | -0.0337
93 | GAAACCCC | -0.162

(further entries)

Row | Sequence | PBM E-score
101 | GCTATATA | 0.149
102 | CCCCGCTC | -0.358
103 | ACGGTCCA | -0.0906
104 | ATGAGATG | 0.103
105 | TACACTAA | 0.147
106 | ACATCACG | -0.073
107 | ACCGCCCC | -0.00693
108 | TAGCTGAA | 0.0392
109 | AGCTTAAG | 0.156
110 | ATGGCCTG | 0.0685
111 | AAAGAGCC | -0.142
112 | CTTTGCTC | 0.0584
113 | GTCTGCAC | -0.196
114 | GGTTAGAC | 0.166
115 | AACCTCGG | 0.0695
116 | CTGCTCGC | 0.155
117 | CTGGATAC | 0.00912
118 | CTCGCCTC | -0.185
119 | CGCGCGGA | 0.212
120 | CTTAGAAA | 0.209
121 | CAGAGACC | -0.145
122 | AATAGAAG | -0.0658
123 | TAGCAGGA | -0.153
124 | AAGTTCTG | 0.0248
125 | ATTCTGCC | 0.0412

Row | Sequence | PBM E-score
126 | GGGCGAAA | 0.0308
127 | GTTTATCA | 0.173
128 | ACGCGTTA | 0.167
129 | ACGAGTTG | -0.0466
130 | GGAATGCA | -0.0716
131 | ATCACCGC | -0.0648
132 | ACCGAGCA | 0.00804
133 | ACTCGCCA | 0.0103
134 | AGAGACTG | -0.269
135 | AGTTAGAT | 0.00473
136 | AGGGGGAT | -0.359
137 | GAATTTTA | 0.16
138 | ATGTGAGG | 0.0824
139 | ACTTGCCA | -0.0915
140 | CTCATAGC | -0.238
141 | ACTAGAAC | 0.0619
142 | GGTACATA | -0.0858
143 | GATCGATA | 0.132
144 | ATTTATTC | 0.159
145 | ATTGGGTA | 0.05
146 | AATCGCAC | -0.0708
147 | AACACGAT | 0.123
148 | CCACAGAA | -0.1
149 | GAAAACGC | 0.0255
150 | GGCCCTTA | -0.189

Row | Sequence | PBM E-score
151 | ACGTAATA | 0.311
152 | CTACCCAG | -0.129
153 | TAGCCTGA | -0.161
154 | CCGCATCC | -0.143
155 | ACAAAAGG | -0.0897
156 | CTGAAGCA | -0.0415
157 | AGGGTTCC | -0.0525
158 | ACAATAAC | 0.196
159 | CCGGCGAC | -0.0761
160 | GCAACTCA | 0.182
161 | CGGTTACG | -0.0162
162 | CTCTTCGC | -0.0391
163 | CAGGGGAG | -0.277
164 | ATTATAGA | -0.0402
165 | CACTTAGG | -0.03
166 | ATCGCTTG | 0.00119
167 | AAGTACGT | 0.0732
168 | CGGGATCA | -0.14
169 | AGGCAATC | -0.0875
170 | CCACTGGG | -0.194
171 | CCTTTGTA | -0.00184
172 | ACTTTTCA | 0.0145
